Measured values published in PubChem BioAssay AID330 (DTP/NCI, 2004).
The list does not hold the whole screen: it gathers tests that were run many times, whatever their T/C, doses with no T/C, and many T/C values between a quarter and a half above the control. Other doses and runs of a compound stand elsewhere. T/C: endpoint of the treated group in % of that of the vehicle group. Some doses have a count of surviving animals in place of a T/C: the source files T/C as zero there, which appears to mark a toxic dose or a test without result, not a measured value. Some doses without a T/C left all or most animals alive at the check, yet need not have been tolerated: the source hardly ever lists a survival T/C far under the control, and the zero likely stands for such cases as well. Counts of survivors are from the toxicity check (mostly the fifth day) where no day follows; animals may have died later. Schedule codes are those of the source, read here as Q, the interval in days (D) or hours (H), X, the number of doses. Additions like (4×) stand for listed records that agree. Where survival is the endpoint, this PubChem deposit counts one and a half times the control or more as active, and values a quarter to a half above the control carry no call in these data; other NCI protocols may use other cut-offs. Some T/C values carry the count of animals alive at the toxicity check (mostly the fifth day); without a count, all were alive then. Some entries hold several experiments; the results are listed from low to high.

Test system: P388 leukemia ip, CD2F1 mice, survival T/C
Experiment: NCI In Vivo Anticancer Drug Screen. Data for tumor model P388 Leukemia (intraperitoneal) in CD2F1 (CDF1) mice
Conditions: T/C endpoint: median survival time, higher T/C = longer survival
[1] = dose: 200.0 mg/kg/injection, schedule: Q01DX009 (ip), vehicle: Klucel (hydroxypropylcellulose) (HPC)
[2] = dose: 200.0 mg/kg/injection, schedule: Q01DX005 (ip), vehicle: saline with Tween-80
[3] = dose: 200.0 mg/kg/injection, schedule: Q01DX009 (ip), vehicle: saline with Tween-80
[4] = dose: 30.0 mg/kg/injection, schedule: Q01DX009 (ip), vehicle: saline with Tween-80
[5] = dose: 60.0 mg/kg/injection, schedule: Q01DX009 (ip), vehicle: saline with Tween-80
[6] = dose: 50.0 mg/kg/injection, schedule: Q01DX005 (ip), vehicle: saline with Tween-80
[7] = dose: 100.0 mg/kg/injection, schedule: Q01DX005 (ip), vehicle: saline with Tween-80
[8] = dose: 240.0 mg/kg/injection, schedule: Q01DX005 (ip), vehicle: Klucel (hydroxypropylcellulose) (HPC)
[9] = dose: 12.5 mg/kg/injection, schedule: Q01DX005 (ip), vehicle: DMSO
[10] = dose: 25.0 mg/kg/injection, schedule: Q01DX005 (ip), vehicle: DMSO
[11] = dose: 200.0 mg/kg/injection, schedule: Q01DX009 (ip), vehicle: saline + Tween-80 + alcohol

`Oc1c(C(Nc2cccc3cccnc23)c2ccccc2)ccc2cccnc12` (stereo not given) was tested, and the T/C [1] was 126 [5 of 6 alive] and 130 % of control and the T/C (dose: 400.0 mg/kg/injection, schedule: Q01DX009 (ip), vehicle: Klucel (hydroxypropylcellulose) (HPC)) was 135 % of control.
For `Cc1ccc2c(c1)sc1nnc(S(C)(=O)=O)n12`, the survivor count [1] was 1 of 6.
With `CCc1nc(N)nc(N)c1-c1ccc([N+](=O)[O-])cc1` the survivor count [2] was 0 of 6.
In the case of `CC1[N-]CCCN(CCN(C)C)CCC[N-]C(C)C2CCCC1[N-]2.[Ni+3].[O-][Cl+3]([O-])([O-])O` (stereo not given), the survivor count (dose: 200.0 mg/kg/injection, schedule: Q01DX001 (ip), vehicle: saline) is reported as 2 of 6 and the survivor count (dose: 400.0 mg/kg/injection, schedule: Q01DX001 (ip), vehicle: saline) is reported as 1 of 6.
With `CCN(CC)CCNc1c(OC)c(OC)cc2nccnc12` the survivor count (dose: 200.0 mg/kg/injection, schedule: Q01DX005 (ip), vehicle: suspension in saline) was 3 of 5.
For `O=C(Nc1cccc(Cl)c1)N1CC1`, the survivor count [3] was 0 of 6 and the survivor count (dose: 400.0 mg/kg/injection, schedule: Q01DX009 (ip), vehicle: saline with Tween-80) was 0 of 6.
With `CC(C)c1oc(=O)cc2c1[C@@H](O)[C@H]1OC(=O)[C@@]3(C)[C@@H](O)[C@H]4O[C@H]4[C@@]2(C)[C@@H]13` the survivor count (dose: 3.75 mg/kg/injection, schedule: Q01DX001 (ip), vehicle: saline with Tween-80) was 0 of 6, the T/C (dose: 7.5 mg/kg/injection, schedule: Q01DX001 (ip), vehicle: saline with Tween-80) was 102, 107, 112, 120 % of control and the survivor count (dose: 15.0 mg/kg/injection, schedule: Q01DX001 (ip), vehicle: saline with Tween-80) was 1 of 6. The T/C (dose: 20.0 mg/kg/injection, schedule: Q01DX009 (ip), vehicle: saline with Tween-80) was 125 % of control, the survivor count (dose: 30.0 mg/kg/injection, schedule: Q01DX001 (ip), vehicle: saline with Tween-80) was 0 of 6 and the T/C [4] was 129 % of control. For the same molecule, the survivor count [4] was 3 of 6, the T/C (dose: 40.0 mg/kg/injection, schedule: Q01DX009 (ip), vehicle: saline with Tween-80) was 145 % of control and the T/C [5] was 129 % of control. The survivor count [5] was 0 of 6 and the survivor count (dose: 120.0 mg/kg/injection, schedule: Q01DX009 (ip), vehicle: saline with Tween-80) was 0 of 3.
For `CCOC(=O)C(=CNc1cccc2c(O)cccc12)C(=O)OCC`, the survivor count [6] was 5 of 5 and the survivor count [7] was 5 of 5.
For `CC(C)CC(=O)CC(c1ccccc1)C(C(=O)/C=C/c1ccccc1)C(C)C` (stereo not given), the survivor count [7] was 5 of 5 and the survivor count [2] was 5 of 5.
In the case of `CNC(=O)NC(c1ccc2c(c1)OCO2)c1cc2c(cc1O)OCO2` (stereo not given), the survivor count [8] is reported as 6 of 6.
With `COc1cc2c(oc(=O)c3cc(C)cc(OC)c32)c2c(C3OC(C)C(O)C(C)(O)C3O)ccc(O)c12` (stereo not given) the T/C (dose: 6.25 mg/kg/injection, schedule: Q01DX005 (ip), vehicle: DMSO) was 127 % of control, the T/C [9] was 140 % of control and the survivor count [9] was 6 of 6. For the same molecule, the T/C [10] was 134 % of control, the survivor count [10] was 6 of 6 and the survivor count (dose: 50.0 mg/kg/injection, schedule: Q01DX005 (ip), vehicle: DMSO) was 6 of 6. The survivor count (dose: 100.0 mg/kg/injection, schedule: Q01DX005 (ip), vehicle: DMSO) was 6 of 6 and the survivor count (dose: 200.0 mg/kg/injection, schedule: Q01DX005 (ip), vehicle: DMSO) was 6 of 6.
In the case of `CC(=O)Nc1ccc(S(=O)(=O)CC#N)cc1`, the survivor count (dose: 200.0 mg/kg/injection, schedule: Q01DX009 (ip), vehicle: suspension in saline) is reported as 6 of 6.
For `O=Nc1c(O)c(Cl)cc2ccccc12`, the survivor count (dose: 12.5 mg/kg/injection, schedule: Q01DX005 (ip), vehicle: saline with Tween-80) was 3 of 5, the survivor count [6] was 0 of 5 and the survivor count [7] was 0 of 5. The survivor count [2] was 0 of 5.
For `COC(=O)C(Sc1ccc(Cl)cc1)C1SC(=S)N(C)C1=O` (stereo not given), the T/C (dose: 12.5 mg/kg/injection, schedule: Q01DX009 (ip), vehicle: saline with Tween-80) was 135 % of control.
In the case of `CC1(C)N=C(N/N=C/c2ccccc2)SP1(=O)NNc1ncccn1` (stereo not given), the survivor count [8] is reported as 0 of 6.
For `c1cc(OCCOc2cccc3ocnc23)c2ncoc2c1`, the survivor count (dose: 120.0 mg/kg/injection, schedule: Q01DX005 (ip), vehicle: saline with Tween-80) was 6 of 6.
In the case of `NNC(=O)C(=O)Nc1ccc(F)cc1`, the survivor count [3] is reported as 3 of 6.
With `Cc1ccc(Cl)c(S(=O)(=O)F)c1` the survivor count (dose: 100.0 mg/kg/injection, schedule: Q01DX009 (ip), vehicle: saline with Tween-80) was 3 of 6.
In the case of `O=C(Nc1nncs1)c1ccncc1`, the T/C (dose: 100.0 mg/kg/injection, schedule: Q04DX002 (ip), vehicle: saline with Tween-80) is reported as 129 % of control [5 of 6 alive], the T/C (dose: 200.0 mg/kg/injection, schedule: Q04DX002 (ip), vehicle: saline with Tween-80) is reported as 127 % of control and the survivor count (dose: 600.0 mg/kg/injection, schedule: Q04DX002 (ip), vehicle: saline with Tween-80) is reported as 5 of 6.
With `C[C@@H]1C[C@](O)([C@@H](C)Cl)C(=O)O[C@@H]2CCN3CC=C(COC(=O)[C@]1(C)O)[C@H]23` the survivor count (dose: 44.0 mg/kg/injection, schedule: Q01DX009 (ip), vehicle: saline) was 2 of 5.
For `CNC1c2ccccc2CCC1O` (stereo not given), the survivor count (dose: 400.0 mg/kg/injection, schedule: Q04DX002 (ip), vehicle: Klucel (hydroxypropylcellulose) (HPC)) was 0 of 6.
In the case of `CCN(CC)Cc1cc2[nH]c3c4ccc(Cl)cc4ncc3c2cc1OC` (tested in a mixture with another compound), the T/C [6] is reported as 129 % of control, the survivor count [7] is reported as 0 of 5 and the survivor count [2] is reported as 1 of 5 (2×).
For `CC(=O)Oc1ccccc1O`, the T/C (dose: 100.0 mg/kg/injection, schedule: Q01DX009 (ip), vehicle: saline + Tween-80 + alcohol) was 129 % of control, the T/C [11] was 125 and 135 % of control [5 of 6 alive] and the survivor count [11] was 1 of 6. The survivor count (dose: 400.0 mg/kg/injection, schedule: Q01DX009 (ip), vehicle: saline + Tween-80 + alcohol) was 0 of 6.
In the case of `Cc1c2ccncc2c(C)c2c1sc1ccccc12`, the T/C (dose: 12.5 mg/kg/injection, schedule: Q04DX003 (ip), vehicle: distilled water + Tween-80) is reported as 133 % of control, the T/C (dose: 25.0 mg/kg/injection, schedule: Q04DX003 (ip), vehicle: alkali diluted with water) is reported as 127 % of control and the T/C (dose: 25.0 mg/kg/injection, schedule: Q04DX003 (ip), vehicle: distilled water + Tween-80) is reported as 126 % of control. The T/C (dose: 50.0 mg/kg/injection, schedule: Q04DX003 (ip), vehicle: alkali diluted with water) was 148 % of control, the T/C (dose: 50.0 mg/kg/injection, schedule: Q04DX003 (ip), vehicle: distilled water + Tween-80) was 140 % of control and the T/C (dose: 100.0 mg/kg/injection, schedule: Q04DX003 (ip), vehicle: alkali diluted with water) was 145 % of control. For the same molecule, the T/C (dose: 100.0 mg/kg/injection, schedule: Q04DX003 (ip), vehicle: distilled water + Tween-80) was 133 % of control and the survivor count (dose: 400.0 mg/kg/injection, schedule: Q04DX003 (ip), vehicle: alkali diluted with water) was 5 of 8.
`CCOc1nc2ccc(NC(C)CN3CCN(CCc4ccccc4)CC3)cc2s1` (stereo not given) was tested, and the survivor count (dose: 200.0 mg/kg/injection, schedule: Q01DX005 (ip), vehicle: Klucel (hydroxypropylcellulose) (HPC)) was 0 of 6.
In the case of `[N-]=[N+]=NC(=O)c1cnn(Cc2ccccc2)c1N`, the survivor count (dose: 400.0 mg/kg/injection, schedule: Q01DX001 (ip), vehicle: saline with Tween-80) is reported as 1 of 6.
